Results deposited as PubChem BioAssay AID1259264 (Sanger Institute, 2017)
Purpose: 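Kinases needed for CL40 growth and those that boost anti-cancer drug killing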 (primary screen). Cells: CL40 human colorectal cancer cells. Reagent: siRNA pool against human genes. Conditions: DMSO, or an anchor drug: BYL719 at 1 µM, cetuximab at 5 µg/ml, or trametinib at 10 nM. Read-out: 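Replicate-mean viability versus a non-targeting pool, robust z-score from control wells, and mean synergy with BYL719 1 µM, cetuximab 5 µg/ml or trametinib 10 nM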. Scale: robust z-score, siRNA alone: higher = more viable cells. Rule for the call: 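Essential call: siRNA with no drug reaches a robust z under -3 (low cell count); drug synergy scores do not affect it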. Meaning of the calls: active = essential (lowers viability alone); inactive = not essential.
The deposit covers 794 reagents; this is a random part of them. 15 of them (1.9%) count as active. 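Calls rest on knock-down alone at z-score below -3; synergy scores with the three drugs do not decide them.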 Further read-outs or replicates are left out here. Reagent sequences are not shown. Not given: the amount of reagent, the time to read-out.

What is on record for DLG4 (discs large MAGUK scaffold protein 4)?
robust z-score, siRNA alone: -0.588; Outcome: inactive

With FN3KRP (fructosamine 3 kinase related protein), what was measured?
robust z-score, siRNA alone: -1.08; Outcome: inactive

With PAK5 (p21 (RAC1) activated kinase 5), what does the deposit list?
robust z-score, siRNA alone: -1.2; Outcome: inactive

What is on record for POMK (protein O-mannose kinase)?
robust z-score, siRNA alone: -0.53; Outcome: inactive

What did the screen give for MAP2K2 (mitogen-activated protein kinase kinase 2)?
robust z-score, siRNA alone: 0.539; Outcome: inactive

With CERK (ceramide kinase), what was measured?
robust z-score, siRNA alone: 0.539; Outcome: inactive

Which result is listed for INSRR (insulin receptor related receptor)?
robust z-score, siRNA alone: 0.539; Outcome: inactive

Which result is listed for RYK (receptor like tyrosine kinase)?
robust z-score, siRNA alone: 0.0555; Outcome: inactive

For CSNK2A2 (casein kinase 2 alpha 2), what was measured?
robust z-score, siRNA alone: 0.539; Outcome: inactive

With MATK (megakaryocyte-associated tyrosine kinase), how do the results read?
robust z-score, siRNA alone: -0.797; Outcome: inactive

How did the screen score MAP3K8 (mitogen-activated protein kinase kinase kinase 8)?
robust z-score, siRNA alone: -1.86; Outcome: inactive

For BUB1B (BUB1 mitotic checkpoint serine/threonine kinase B), how do the results read?
robust z-score, siRNA alone: -2.45; Outcome: inactive

For PRKCSH (PRKCSH beta subunit of glucosidase II), what was measured?
robust z-score, siRNA alone: 0.539; Outcome: inactive

Which result is listed for GRK6 (G protein-coupled receptor kinase 6)?
robust z-score, siRNA alone: 0.539; Outcome: inactive

What did the screen give for PTPRU (protein tyrosine phosphatase receptor type U)?
robust z-score, siRNA alone: -0.0832; Outcome: inactive

Which result is listed for FASTK (Fas activated serine/threonine kinase)?
robust z-score, siRNA alone: 0.0474; Outcome: inactive

With CDC42BPB (CDC42 binding protein kinase beta), how do the results read?
robust z-score, siRNA alone: 0.539; Outcome: inactive

With HK3 (hexokinase 3), what was measured?
robust z-score, siRNA alone: 0.485; Outcome: inactive

For ERBB4 (erb-b2 receptor tyrosine kinase 4), how do the results read?
robust z-score, siRNA alone: 0.539; Outcome: inactive

Which result is listed for CAMK2A (calcium/calmodulin dependent protein kinase II alpha)?
robust z-score, siRNA alone: 0.13; Outcome: inactive

What did the screen give for NME3 (NME/NM23 nucleoside diphosphate kinase 3)?
robust z-score, siRNA alone: 0.539; Outcome: inactive

What did the screen give for PEAK1 (pseudopodium enriched atypical kinase 1)?
robust z-score, siRNA alone: -0.6; Outcome: inactive

For ITPKC (inositol-trisphosphate 3-kinase C), how do the results read?
robust z-score, siRNA alone: 0.539; Outcome: inactive

For SOS2 (SOS Ras/Rho guanine nucleotide exchange factor 2), how do the results read?
robust z-score, siRNA alone: 0.539; Outcome: inactive

With PTEN (phosphatase and tensin homolog), how do the results read?
robust z-score, siRNA alone: 0.539; Outcome: inactive

With IKBKG, how do the results read?
robust z-score, siRNA alone: -1.93; Outcome: inactive

With ROR2 (ROR family WNT receptor 2), what does the deposit list?
robust z-score, siRNA alone: 0.539; Outcome: inactive

How did the screen score MAP4K2 (mitogen-activated protein kinase kinase kinase kinase 2)?
robust z-score, siRNA alone: 0.435; Outcome: inactive

What did the screen give for PKLR (pyruvate kinase L/R)?
robust z-score, siRNA alone: 0.539; Outcome: inactive

What is on record for PRKAB1 (protein kinase AMP-activated non-catalytic subunit beta 1)?
robust z-score, siRNA alone: -1.25; Outcome: inactive

For DAPK1 (death associated protein kinase 1), how do the results read?
robust z-score, siRNA alone: 0.539; Outcome: inactive

With ALK (ALK receptor tyrosine kinase), how do the results read?
robust z-score, siRNA alone: 0.539; Outcome: inactive

What is on record for CERT1 (ceramide transporter 1)?
robust z-score, siRNA alone: 0.539; Outcome: inactive

Which result is listed for GSK3A (glycogen synthase kinase 3 alpha)?
robust z-score, siRNA alone: -0.779; Outcome: inactive

What is on record for AMER1 (APC membrane recruitment protein 1)?
robust z-score, siRNA alone: 0.539; Outcome: inactive

Which result is listed for SPHK1 (sphingosine kinase 1)?
robust z-score, siRNA alone: 0.539; Outcome: inactive

Laid out differently: 2 of the entries above.
gene | robust z-score, siRNA alone | Outcome
PEAK1 (pseudopodium enriched atypical kinase 1) | -0.6 | inactive
ITPKC (inositol-trisphosphate 3-kinase C) | 0.539 | inactive
